Results on one molecule are retold here after article PMC3522678.

By UniProt entry, the sequences of proteins in these tests, tags left out. Where a name states a change or a piece, a line headed by the entry shows the natural chain unless it says otherwise. Chains listed by the source or under a name are the forms on record and can include a tag or linker.
GFP-tagged wild-type SET (Q01105, form named): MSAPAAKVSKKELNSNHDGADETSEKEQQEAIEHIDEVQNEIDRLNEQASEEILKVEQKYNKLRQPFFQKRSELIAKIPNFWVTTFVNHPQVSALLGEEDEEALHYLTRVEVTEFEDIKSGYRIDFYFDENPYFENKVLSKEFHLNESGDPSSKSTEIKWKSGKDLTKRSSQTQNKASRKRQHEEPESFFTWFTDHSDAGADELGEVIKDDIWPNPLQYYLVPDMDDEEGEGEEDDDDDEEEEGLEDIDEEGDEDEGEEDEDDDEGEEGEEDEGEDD

The assay has as its target GFP-tagged wild-type SET (human) (UniProt Q01105). Nature of the assay: co-IP; Jurkat cells or GFP-SET-WT expressing Jurkat cells (1×10^7) stimulated with PMA (20 ng/ml) and ionomycin (2 µg/ml) for 30 min at 37°C and lysed; lysate immunoprecipitated with anti-PKD2 or anti-GFP antibody and Protein A beads.

No constants are given. Whether binding was seen depends on the method and setting. In cells and extracts the contact can be indirect. Some binding calls cover weakened binding; strength is not graded here.

B1: Protein kinase D2 (enzyme, UniProt Q9BZL6 1-878)
chain: MATAPSYPAGLPGSPGPGSPPPPGGLELQSPPPLLPQIPAPGSGVSFHIQIGLTREFVLLPAASELAHVKQLACSIVDQKFPECGFYGLYDKILLFKHDPTSANLLQLVRSSGDIQEGDLVEVVLSASATFEDFQIRPHALTVHSYRAPAFCDHCGEMLFGLVRQGLKCDGCGLNYHKRCAFSIPNNCSGARKRRLSSTSLASGHSVRLGTSESLPCTAEELSRSTTELLPRRPPSSSSSSSASSYTGRPIELDKMLLSKVKVPHTFLIHSYTRPTVCQACKKLLKGLFRQGLQCKDCKFNCHKRCATRVPNDCLGEALINGDVPMEEATDFSEADKSALMDESEDSGVIPGSHSENALHASEEEEGEGGKAQSSLGYIPLMRVVQSVRHTTRKSSTTLREGWVVHYSNKDTLRKRHYWRLDCKCITLFQNNTTNRYYKEIPLSEILTVESAQNFSLVPPGTNPHCFEIVTANATYFVGEMPGGTPGGPSGQGAEAARGWETAIRQALMPVILQDAPSAPGHAPHRQASLSISVSNSQIQENVDIATVYQIFPDEVLGSGQFGVVYGGKHRKTGRDVAVKVIDKLRFPTKQESQLRNEVAILQSLRHPGIVNLECMFETPEKVFVVMEKLHGDMLEMILSSEKGRLPERLTKFLITQILVALRHLHFKNIVHCDLKPENVLLASADPFPQVKLCDFGFARIIGEKSFRRSVVGTPAYLAPEVLLNQGYNRSLDMWSVGVIMYVSLSGTFPFNEDEDINDQIQNAAFMYPASPWSHISAGAIDLINNLLQVKMRKRYSVDKSLSHPWLQEYQTWLDLRELEGKMGERYITHESDDARWEQFAAEHPLPGSGLPTDRDLGGACPPQDHDMQGLAERISVL
For B1, the binding result is given as “binds”.
